According to publication doi:10.1101/2025.06.17.660196:
No constants are given. Whether binding was seen depends on the method and setting. Binding seen in cells or lysates may run through a third protein. A result given as binding can be weak or reduced; the word gives no strength. Sequences can lack the tags named with a protein.

Molecular target: T1, FLAG-Strep-Med19 (endogenous 3xFLAG/Twin Strep tagged Med19) (rat (endogenous in INS-1)) (UniProt D3ZAP1)
T1 sequence: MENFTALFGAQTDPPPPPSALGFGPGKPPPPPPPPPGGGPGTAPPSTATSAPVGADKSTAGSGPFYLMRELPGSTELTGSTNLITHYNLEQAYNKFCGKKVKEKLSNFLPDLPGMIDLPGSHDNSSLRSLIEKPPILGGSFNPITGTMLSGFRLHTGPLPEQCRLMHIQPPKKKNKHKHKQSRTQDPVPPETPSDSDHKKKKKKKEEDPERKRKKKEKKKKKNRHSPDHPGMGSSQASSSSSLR
Experiment: co-IP; anti-FLAG (M2 agarose) immunoprecipitates of endogenous FLAG-Strep-Med19 from INS-1 extracts, Med14 WT and Med14 S983A knock-in lines; immunoblot; cells treated with FSK, H-89 or Ex-4 (10 nM) as indicated

Row | binding | Substance
1 | binds | Med30 (rat (endogenous in INS-1))
2 | binds | Med12 (rat (endogenous in INS-1))
